In PubChem BioAssay AID248 (DTP/NCI, 2004):
The list shows only some results of the screen, not a fair sample: it is rich in T/C values a quarter to a half above the control, in often repeated tests (any T/C) and in doses without a T/C. Other doses and runs of a compound stand elsewhere. T/C gives the treated animals as a percentage of the vehicle group. Some entries give survivors of the animals treated and no T/C: the source files T/C as zero there, which appears to mark a toxic dose or a test without result, not a measured value. Some doses without a T/C left all or most animals alive at the check, yet need not have been tolerated: survival well below the control is almost never listed, so the zero probably covers shortened survival too. Survivors were counted at the toxicity check, usually on the fifth day, unless a day is given; later deaths do not show. Schedule codes are those of the source, read here as Q, the interval in days (D) or hours (H), X, the number of doses. Some schedule codes hold Z or #, which are not explained here. Some structures stand for samples that the source files as different forms (salt, stereo form or complex); doses refer to the form tested. Where survival is the endpoint, the PubChem record calls one and a half times the control and up active, and a quarter to a half above the control has no call in these data; cut-offs in other NCI protocols can differ. Some T/C values are followed by the survivors on the day toxicity was checked, most often the fifth; where none is given, no animal had died by that day. Some entries were tested several times; the results are listed from low to high. Signs of the kind (2×) stand for listed records that agree.

System: L1210 leukemia ip in BDF1 mice, survival T/C
Assay: NCI In Vivo Anticancer Drug Screen. Data for tumor model L1210 Leukemia (intraperitoneal) in B6D2F1 (BDF1) mice
Settings: T/C endpoint: mean survival time, higher T/C = longer survival

O=C(Nc1ccc(C2=NCCN2)cc1)c1ccc(C(=O)Nc2ccc(C3=NCCN3)cc2)c(Cl)c1
T/C (dose: 2.0 mg/kg/injection, schedule: Q01DX010 (ip), vehicle: other): 134 % of control
T/C (dose: 2.0 mg/kg/injection, schedule: Q01DX010 (ip), vehicle: saline): 103, 112, 117, 124 % of control
T/C (dose: 4.0 mg/kg/injection, schedule: Q01DX010 (ip), vehicle: other): 143 % of control
T/C (dose: 4.0 mg/kg/injection, schedule: Q01DX010 (ip), vehicle: saline): 120, 121, 122, 123 % of control
T/C (dose: 4.0 mg/kg/injection, schedule: Q01DX Z (ip), vehicle: saline): 125 % of control
T/C (dose: 6.25 mg/kg/injection, schedule: Q01DX009 (ip), vehicle: saline with Tween-80): 133 % of control
T/C (dose: 6.3 mg/kg/injection, schedule: Q01DX Z (ip), vehicle: methylcellulose (MC)): 139 and 145 % of control [5 of 6 alive]
T/C (dose: 6.7 mg/kg/injection, schedule: Q01DX010 (ip), vehicle: carboxymethylcellulose (CMC)): 138 % of control
T/C (dose: 6.7 mg/kg/injection, schedule: Q01DX015 (ip), vehicle: carboxymethylcellulose (CMC)): 133 % of control
T/C (dose: 7.0 mg/kg/injection, schedule: Q01DX009 (ip), vehicle: Klucel (hydroxypropylcellulose) (HPC)): 123, 125, 129, 137 % of control
T/C (dose: 8.0 mg/kg/injection, schedule: Q01DX010 (ip), vehicle: saline): 138, 143, 150, 155 % of control
T/C (dose: 8.0 mg/kg/injection, schedule: Q01DX Z (ip), vehicle: saline): 132 % of control
T/C (dose: 8.0 mg/kg/injection, schedule: Q01DX Z (sc), vehicle: carboxymethylcellulose (CMC)): 146 % of control
T/C (dose: 10.0 mg/kg/injection, schedule: Q01DX010 (ip), vehicle: carboxymethylcellulose (CMC)): 144 % of control
T/C (dose: 10.0 mg/kg/injection, schedule: Q01DX010 (ip), vehicle: other): 131 % of control
T/C (dose: 10.0 mg/kg/injection, schedule: Q01DX015 (ip), vehicle: carboxymethylcellulose (CMC)): 137 % of control
T/C (dose: 10.0 mg/kg/injection, schedule: Q04DX002 (ip), vehicle: Klucel (hydroxypropylcellulose) (HPC)): 100, 103, 105, 106 % of control
T/C (dose: 11.3 mg/kg/injection, schedule: Q02DX010 (ip), vehicle: carboxymethylcellulose (CMC)): 134 % of control
T/C (dose: 11.3 mg/kg/injection, schedule: Q02DX010 (ip), vehicle: other): 142 % of control
T/C (dose: 12.0 mg/kg/injection, schedule: Q03DX Z (ip), vehicle: saline): 131 and 132 % of control
T/C (dose: 12.5 mg/kg/injection, schedule: Q01DX010 (sc), vehicle: olive oil, sesame oil, peanut oil): 128 and 139 % of control
T/C (dose: 13.0 mg/kg/injection, schedule: Q02DX010 (ip), vehicle: carboxymethylcellulose (CMC)): 149, 156, 164, 186, 193, 197 % of control
T/C (dose: 14.0 mg/kg/injection, schedule: Q01DX009 (ip), vehicle: Klucel (hydroxypropylcellulose) (HPC)): 125, 134, 147, 151 % of control
T/C (dose: 16.0 mg/kg/injection, schedule: Q01DX010 (ip), vehicle: other): 133 and 137 % of control
T/C (dose: 16.0 mg/kg/injection, schedule: Q01DX010 (ip), vehicle: saline): 149, 163, 174, 177 % of control
T/C (dose: 17.4 mg/kg/injection, schedule: Q02DX008 (ip), vehicle: carboxymethylcellulose (CMC)): 134 % of control
T/C (dose: 17.4 mg/kg/injection, schedule: Q02DX010 (ip), vehicle: carboxymethylcellulose (CMC)): 146 % of control
T/C (dose: 18.0 mg/kg/injection, schedule: Q02DX010 (ip), vehicle: carboxymethylcellulose (CMC)): 144 % of control
T/C (dose: 19.35 mg/kg/injection, schedule: Q02DX010 (ip), vehicle: carboxymethylcellulose (CMC)): 144, 175, 192, 197, 237 % of control (2×)
T/C (dose: 20.0 mg/kg/injection, schedule: Q02DX010 (ip), vehicle: carboxymethylcellulose (CMC)): 205, 213, 215, 231, 233, 257 % of control
T/C (dose: 20.0 mg/kg/injection, schedule: Q04DX002 (ip), vehicle: Klucel (hydroxypropylcellulose) (HPC)): 107, 110 (2×), 115 % of control
T/C (dose: 24.0 mg/kg/injection, schedule: Q03DX Z (ip), vehicle: saline): 139 % of control
T/C (dose: 25.0 mg/kg/injection, schedule: Q02DX004 (im), vehicle: olive oil, sesame oil, peanut oil): 132 and 142 % of control
T/C (dose: 26.0 mg/kg/injection, schedule: Q02DX008 (ip), vehicle: carboxymethylcellulose (CMC)): 147 % of control
T/C (dose: 28.0 mg/kg/injection, schedule: Q01DX009 (ip), vehicle: Klucel (hydroxypropylcellulose) (HPC)): 166, 188, 205, 214 % of control
T/C (dose: 28.0 mg/kg/injection, schedule: Q07DX Z (ip), vehicle: saline): 131 % of control
T/C (dose: 30.0 mg/kg/injection, schedule: Q01DX Z (ip), vehicle: methylcellulose (MC)): 128 % of control
T/C (dose: 30.0 mg/kg/injection, schedule: Q02DX010 (ip), vehicle: carboxymethylcellulose (CMC)): 221, 255, 257, 268, 277, 295 % of control
T/C (dose: 30.15 mg/kg/injection, schedule: Q02DX010 (ip), vehicle: carboxymethylcellulose (CMC)): 219 (2×), 247, 274, 291, 313 % of control
survivor count (dose: 32.0 mg/kg/injection, schedule: Q01DX010 (ip), vehicle: other): 0 of 8
T/C (dose: 32.0 mg/kg/injection, schedule: Q01DX010 (ip), vehicle: saline): 200, 222, 243, 249 % of control
survivor count (dose: 32.0 mg/kg/injection, schedule: Q#A X Z (ip), vehicle: saline): 6 of 6
T/C (dose: 35.0 mg/kg/injection, schedule: Q## X032 (ip), vehicle: carboxymethylcellulose (CMC)): 133 and 142 % of control
T/C (dose: 35.2 mg/kg/injection, schedule: Q## X032 (ip), vehicle: carboxymethylcellulose (CMC)): 143 % of control
T/C (dose: 40.0 mg/kg/injection, schedule: Q04DX002 (ip), vehicle: Klucel (hydroxypropylcellulose) (HPC)): 111, 116 (2×), 125 % of control
T/C (dose: 42.0 mg/kg/injection, schedule: Q01DX001 (ip), vehicle: carboxymethylcellulose (CMC)): 125 % of control
T/C (dose: 42.0 mg/kg/injection, schedule: Q01DX001 (ip), vehicle: other): 126 % of control
T/C (dose: 44.0 mg/kg/injection, schedule: Q01DX001 (ip), vehicle: carboxymethylcellulose (CMC)): 130 % of control
T/C (dose: 45.0 mg/kg/injection, schedule: Q02DX010 (ip), vehicle: carboxymethylcellulose (CMC)): 153 (2×), 154, 180, 182, 196, 202, 203, 206, 210, 220, 243 % of control
T/C (dose: 45.0 mg/kg/injection, schedule: Q## X004 (ip), vehicle: carboxymethylcellulose (CMC)): 127 and 138 % of control
T/C (dose: 48.0 mg/kg/injection, schedule: Q03DX Z (ip), vehicle: saline): 129 % of control
T/C (dose: 50.0 mg/kg/injection, schedule: Q01DX001 (im), vehicle: steroid suspending solution): 132 % of control
